Test results taken from PMC7018101.
These are yes or no findings as the source states them, for the method shown. For some of these results: In cells and extracts the contact can be indirect. Some results given as binding are weak or reduced against the parent protein; the word gives no strength. Sequences can lack the tags named with a protein.

How the values were obtained:
[1] = molecular target: T1, Red1(Δ196–245)-YFP (S. pombe) (UniProt Q9UTR8); assay: co-IP; native extracts of S. pombe cells expressing Red1-YFP or Red1(Δ196–245)-YFP; anti-GFP magnetic beads; blot with anti-Mmi1
T1 sequence: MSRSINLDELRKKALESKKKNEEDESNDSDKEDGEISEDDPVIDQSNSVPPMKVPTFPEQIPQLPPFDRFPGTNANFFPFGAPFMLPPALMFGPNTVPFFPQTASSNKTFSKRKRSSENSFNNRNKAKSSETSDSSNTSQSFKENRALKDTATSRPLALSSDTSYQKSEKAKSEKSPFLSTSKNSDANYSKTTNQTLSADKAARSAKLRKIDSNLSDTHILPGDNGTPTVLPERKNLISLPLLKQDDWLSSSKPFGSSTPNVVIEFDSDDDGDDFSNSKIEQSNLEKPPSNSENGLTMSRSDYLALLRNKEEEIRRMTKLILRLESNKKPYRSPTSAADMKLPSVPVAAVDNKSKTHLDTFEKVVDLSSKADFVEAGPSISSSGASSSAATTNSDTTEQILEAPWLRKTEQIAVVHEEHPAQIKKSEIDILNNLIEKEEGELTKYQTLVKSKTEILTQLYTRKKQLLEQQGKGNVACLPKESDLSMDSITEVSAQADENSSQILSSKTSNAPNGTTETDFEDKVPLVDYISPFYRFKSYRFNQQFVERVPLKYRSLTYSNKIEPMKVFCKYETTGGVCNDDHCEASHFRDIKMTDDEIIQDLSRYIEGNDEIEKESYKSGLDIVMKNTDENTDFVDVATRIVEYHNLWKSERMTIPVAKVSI

[2] = molecular target: T2, Red1-YFP (S. pombe) (UniProt Q9UTR8); assay: as above
T2 sequence: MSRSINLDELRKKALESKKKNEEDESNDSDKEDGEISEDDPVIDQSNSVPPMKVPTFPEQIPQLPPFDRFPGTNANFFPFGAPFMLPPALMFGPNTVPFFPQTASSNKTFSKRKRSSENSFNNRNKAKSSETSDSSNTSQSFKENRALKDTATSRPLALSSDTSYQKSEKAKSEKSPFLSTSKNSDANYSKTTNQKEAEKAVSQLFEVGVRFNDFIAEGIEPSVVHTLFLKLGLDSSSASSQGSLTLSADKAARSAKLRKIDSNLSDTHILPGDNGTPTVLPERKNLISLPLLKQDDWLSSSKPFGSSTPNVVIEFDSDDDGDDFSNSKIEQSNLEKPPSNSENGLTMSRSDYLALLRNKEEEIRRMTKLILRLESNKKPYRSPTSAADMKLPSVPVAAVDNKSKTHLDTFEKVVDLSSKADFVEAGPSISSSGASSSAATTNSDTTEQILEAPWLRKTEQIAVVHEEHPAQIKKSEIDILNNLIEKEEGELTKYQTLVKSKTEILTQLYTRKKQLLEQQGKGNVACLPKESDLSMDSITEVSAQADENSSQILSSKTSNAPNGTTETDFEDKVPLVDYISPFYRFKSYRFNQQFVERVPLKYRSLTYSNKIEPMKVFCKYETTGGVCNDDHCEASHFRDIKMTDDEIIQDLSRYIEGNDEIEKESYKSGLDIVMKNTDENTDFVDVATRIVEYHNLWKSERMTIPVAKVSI

[3] = molecular target: T3, Rrp6-FLAG (S. pombe) (UniProt Q10146); assay: pull-down; in vitro binding assay: purified Rrp6-FLAG incubated with purified GST-YFP-Mmi1 and control reticulocyte lysate or lysate expressing Red1-3HA; room temperature 30 min in 20 mM HEPES pH 7.5, 150 mM NaCl, 5 mM MgCl2, 1 mM DTT, 0.5% Triton-X100, 5% glycerol; anti-FLAG (DDDDK) magnetic beads; washed with 300 mM NaCl, 1% Triton-X100; both purified
T3 sequence: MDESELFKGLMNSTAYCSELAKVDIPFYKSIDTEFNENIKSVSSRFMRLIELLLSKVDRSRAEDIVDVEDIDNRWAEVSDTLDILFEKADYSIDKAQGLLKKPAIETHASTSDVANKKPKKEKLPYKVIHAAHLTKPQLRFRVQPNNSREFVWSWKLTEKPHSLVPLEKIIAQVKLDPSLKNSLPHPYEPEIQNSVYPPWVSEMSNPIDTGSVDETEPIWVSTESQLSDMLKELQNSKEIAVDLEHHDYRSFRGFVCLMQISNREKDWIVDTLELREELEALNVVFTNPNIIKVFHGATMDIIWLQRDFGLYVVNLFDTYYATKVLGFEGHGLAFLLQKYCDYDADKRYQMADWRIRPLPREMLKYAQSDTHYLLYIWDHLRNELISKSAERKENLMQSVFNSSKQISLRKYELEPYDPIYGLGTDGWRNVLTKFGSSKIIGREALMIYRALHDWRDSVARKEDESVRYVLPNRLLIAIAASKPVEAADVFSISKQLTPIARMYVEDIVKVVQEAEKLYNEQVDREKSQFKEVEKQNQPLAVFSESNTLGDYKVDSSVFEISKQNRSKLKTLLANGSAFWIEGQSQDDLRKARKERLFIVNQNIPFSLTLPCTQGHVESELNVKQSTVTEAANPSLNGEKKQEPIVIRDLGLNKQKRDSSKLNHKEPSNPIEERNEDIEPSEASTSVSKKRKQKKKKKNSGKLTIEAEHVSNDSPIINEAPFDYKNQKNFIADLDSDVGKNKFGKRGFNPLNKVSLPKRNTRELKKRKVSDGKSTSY

[4] = molecular target: T3, Rrp6-FLAG (S. pombe); assay: pull-down; in vitro binding assay: purified Rrp6-FLAG incubated with reticulocyte lysate expressing Red1-3HA (purified GST-YFP-Mmi1 also present); same buffers as a5; anti-FLAG (DDDDK) magnetic beads; blot with anti-HA; only the target purified

B1: Mmi1 (endogenous) (protein, UniProt O74958 1-488)
chain: MSNTNFSTSRSSKSIPELPNLEALRSLWPPPSLNESGDTRSVWTTHTGEPVASSVLSTSGSNNFSSPLKRPAPESHDAPIGRRLMVDDPRLIKHGKYDFSRHCTDYGHSYEWPYFRSLRRESMLYHTSGSYPESQPPYSSYSTDAPHYYHAGSESSAYYDSRSRLHGIQPPPKRRTLSPPPRRLADPVVVGSSRYVEEEVYRRPPYTLASEVPSSASAYQAGYSSYPVRSSPQLSHEDTRHGIASSGSTRYPFVPANTRASHSPSLLEPYAHSLPSSVAPVGAYPEKSSYLLSNSSNDSASRKEKPKARASTPPPLNFSRASEHRNEKGERISMINPRVVLDENGISHRSRYFIMLCDNETAIAHAKKTSIWAVKKDSSKRISDAYKKASVYFIFVAQQTYNALGYAQVVSDLNSTELPFWSDSSHAGGVRIKWIKTCNLFSAEISEIVSHMDHGSEARDGMEMMYDEGSRLCTLINYAIMKRIGRDR
Q: B1 was tested. Which binding [1] did it give?
A: Its binding is “binds”.

Q: What about the binding [2] of the same binder?
A: The binding was “binds”.

B2: GST-YFP-Mmi1 (protein, UniProt O74958 1-488)
chain: MSNTNFSTSRSSKSIPELPNLEALRSLWPPPSLNESGDTRSVWTTHTGEPVASSVLSTSGSNNFSSPLKRPAPESHDAPIGRRLMVDDPRLIKHGKYDFSRHCTDYGHSYEWPYFRSLRRESMLYHTSGSYPESQPPYSSYSTDAPHYYHAGSESSAYYDSRSRLHGIQPPPKRRTLSPPPRRLADPVVVGSSRYVEEEVYRRPPYTLASEVPSSASAYQAGYSSYPVRSSPQLSHEDTRHGIASSGSTRYPFVPANTRASHSPSLLEPYAHSLPSSVAPVGAYPEKSSYLLSNSSNDSASRKEKPKARASTPPPLNFSRASEHRNEKGERISMINPRVVLDENGISHRSRYFIMLCDNETAIAHAKKTSIWAVKKDSSKRISDAYKKASVYFIFVAQQTYNALGYAQVVSDLNSTELPFWSDSSHAGGVRIKWIKTCNLFSAEISEIVSHMDHGSEARDGMEMMYDEGSRLCTLINYAIMKRIGRDR
Q: Which binding [3] does the source give for B2 here?
A: The binding was “binds weakly”.

B3: Red1-3HA (protein, UniProt Q9UTR8 1-712)
chain: MSRSINLDELRKKALESKKKNEEDESNDSDKEDGEISEDDPVIDQSNSVPPMKVPTFPEQIPQLPPFDRFPGTNANFFPFGAPFMLPPALMFGPNTVPFFPQTASSNKTFSKRKRSSENSFNNRNKAKSSETSDSSNTSQSFKENRALKDTATSRPLALSSDTSYQKSEKAKSEKSPFLSTSKNSDANYSKTTNQKEAEKAVSQLFEVGVRFNDFIAEGIEPSVVHTLFLKLGLDSSSASSQGSLTLSADKAARSAKLRKIDSNLSDTHILPGDNGTPTVLPERKNLISLPLLKQDDWLSSSKPFGSSTPNVVIEFDSDDDGDDFSNSKIEQSNLEKPPSNSENGLTMSRSDYLALLRNKEEEIRRMTKLILRLESNKKPYRSPTSAADMKLPSVPVAAVDNKSKTHLDTFEKVVDLSSKADFVEAGPSISSSGASSSAATTNSDTTEQILEAPWLRKTEQIAVVHEEHPAQIKKSEIDILNNLIEKEEGELTKYQTLVKSKTEILTQLYTRKKQLLEQQGKGNVACLPKESDLSMDSITEVSAQADENSSQILSSKTSNAPNGTTETDFEDKVPLVDYISPFYRFKSYRFNQQFVERVPLKYRSLTYSNKIEPMKVFCKYETTGGVCNDDHCEASHFRDIKMTDDEIIQDLSRYIEGNDEIEKESYKSGLDIVMKNTDENTDFVDVATRIVEYHNLWKSERMTIPVAKVSI
Q: With B3 as the binder, how does the binding [4] read?
A: The binding was “binds”.
